Some results were stated once for a whole list of compounds, not compound by compound. At least one structure is not confirmed: it was looked up by name or label, or the drawing left a doubt.
Test system: soybean plants comprising EE-GM3
Assay: replicated field trial, crop tolerance to HPPD inhibitor herbicides
Format: in vivo, Glycine max
Conditions: Agridex

Row | Compound | bleaching (crop tolerance) (treated either pre- or post-emergence, 70 gr ai/ha with 0.5% NIS) | bleaching (crop tolerance) (post-emergence application, 35 gr ai/ha with 0.5% NIS)
1 | CS(=O)(=O)c1cc(C(F)(F)F)ccc1C(=O)c1cnoc1C1CC1 [IFT] | less than 10% | –
2 | Cc1nn(C)c(O)c1C(=O)c1ccc(C(F)(F)F)cc1S(C)(=O)=O [pyrasulfotole] | – | less than 10%

Reference: US10494681B2, “Elite event EE-GM3 and methods and kits for identifying such event in biological samples” (BASF AG[…] SEED, US LLC, priority 2009, dated 2019)
